Patent publication US11666636B2, “GLP-1R agonists and uses thereof” (priority 2017, dated 2023)
At least one structure is not confirmed: it was looked up by name or label, or the drawing left a doubt.

Key:
interferon responses = assay: Interferon responses during RSV infection (ELISA, flow cytometry); settings: RSV-infected, vs vehicle
RSV strain 12/12-6 [1] = assay: RSV viral load in lung (RSV M mRNA qPCR normalized to GAPDH); settings: RSV-infected mice, vs vehicle
RSV strain 12/12-6 [2] = assay: Secondary RSV infection after treatment during primary infection; settings: treatment during primary infection only, vs vehicle
RSV strain 12/12-6 [3] = assay: RSV-induced lung IL-13 and IL-13-producing cells (ELISA, flow cytometry)
RSV strain 12/12-6 [4] = assay: RSV-induced airway responsiveness, airway mucus and BAL cell counts
IL-33 = IL-33 expression by epithelial cells and whole lung during RSV infection (Il33Citrine/+ reporter mice); format: in vivo, mouse; settings: vs vehicle
[5] = RSV-infected mice, 6 days after infection, vs vehicle
[6] = RSV-infected mice, lung, vs vehicle
[7] = administration beginning 2 days after RSV infection
[8] = RSV-infected mice, primary infection, vs vehicle
[9] = Il33Citrine/+ reporter mice, RSV-infected

CCCCCCCCCCCCCCCC(=O)N[C@@H](CCC(=O)NCCCC[C@H](NC(=O)[C@H](C)NC(=O)[C@H](C)NC(=O)[C@H](CCC(N)=O)NC(=O)CNC(=O)[C@H](CCC(=O)O)NC(=O)[C@H](CC(C)C)NC(=O)[C@H](Cc1ccc(O)cc1)NC(=O)[C@H](CO)NC(=O)[C@H](CO)NC(=O)[C@@H](NC(=O)[C@H](CC(=O)O)NC(=O)[C@H](CO)NC(=O)[C@@H](NC(=O)[C@H](Cc1ccccc1)NC(=O)[C@@H](NC(=O)CNC(=O)[C@H](CCC(=O)O)NC(=O)[C@H](C)NC(=O)[C@@H](N)Cc1cnc[nH]1)[C@@H](C)O)[C@@H](C)O)C(C)C)C(=O)N[C@@H](CCC(=O)O)C(=O)N[C@@H](Cc1ccccc1)C(=O)N[C@H](C(=O)N[C@@H](C)C(=O)N[C@@H](Cc1c[nH]c2ccccc12)C(=O)N[C@@H](CC(C)C)C(=O)N[C@H](C(=O)N[C@@H](CCCNC(=N)N)C(=O)NCC(=O)N[C@@H](CCCNC(=N)N)C(=O)NCC(=O)O)C(C)C)[C@@H](C)CC)C(=O)O [GLP-1R agonist, liraglutide]
lung IFN-α protein expression (interferon responses; 12 hours after infection): no significant differences
lung IFN-β protein expression (interferon responses; 12 hours after infection): no significant differences
lung IL-27 protein expression (interferon responses; 12 hours after infection): no significant differences
IFN-γ+ Th1 cells (interferon responses; 6 days post-infection): no significant differences
IFN-γ+ natural killer (NK) cells (interferon responses; 6 days post-infection): no significant differences
lung interferon-γ (IFN-γ) expression (interferon responses; 6 days post-infection): no significant differences
viral load (RSV strain 12/12-6 [1]): no significant differences
RSV F-protein-specific antibody responses during secondary RSV infection (RSV strain 12/12-6 [2]; serum IgG, IgG1, IgG2a): did not exhibit altered
number of RSV-induced BAL lymphocytes after secondary infection (RSV strain 12/12-6 [2]; re-infection day 30): significantly decreased
number of RSV-induced total BAL cells after secondary infection (RSV strain 12/12-6 [2]; re-infection day 30): significantly decreased
lung IFN-γ expression during secondary RSV infection (RSV strain 12/12-6 [2]): did not exhibit altered
total number of cells in the lung (RSV strain 12/12-6 [3]; RSV-infected BALB/cJ mice, 6 days after infection, vs vehicle): significantly decreased
MFI of CD127 on the ILC2 (RSV strain 12/12-6 [3]; [5]): significantly decreased
MFI of IL-13 on the ILC2 (RSV strain 12/12-6 [3]; [5]): significantly decreased
percentage of ILC that were IL-13+ (RSV strain 12/12-6 [3]; [5]): significantly decreased
total number of group 2 innate lymphoid cells (ILC2) (RSV strain 12/12-6 [3]; [5]): significantly decreased
numbers of CD4+ T cells (RSV strain 12/12-6 [3]; [6]): significantly decreased
numbers of IL-13+ Th2 cells (RSV strain 12/12-6 [3]; [6]): significantly decreased
numbers of IL-13+ basophils (RSV strain 12/12-6 [3]; [6]): significantly decreased
numbers of basophils (RSV strain 12/12-6 [3]; [6]): significantly decreased
lung IL-13 protein expression (RSV strain 12/12-6 [3]; RSV-infected mice, treatment twice daily from 2 days prior to infection, vs vehicle): significantly decreased
lung IL-13 (RSV strain 12/12-6 [3]; [7]): significantly decreased
mucus severity scores (RSV strain 12/12-6 [4]; RSV-infected mice, PAS staining, vs vehicle): significant decreases
numbers of BAL lymphocytes (RSV strain 12/12-6 [4]; [8]): significantly decreased
numbers of total bronchoalveolar lavage (BAL) cells (RSV strain 12/12-6 [4]; [8]): significantly decreased
methacholine-induced airway responsiveness (RSV strain 12/12-6 [4]; RSV-infected mice, vs vehicle): significant decreases
airway mucus (RSV strain 12/12-6 [4]; [7]): trend towards decreased
total number of cells in the lung (IL-33; Il33Citrine/+ reporter mice, 12 hours after RSV infection): significantly decreased
MFI of IL-33 in the epithelial cells (IL-33; [9]): significantly decreased
percentage of epithelial cells that were IL-33+ (IL-33; [9]): significantly decreased
total number of IL-33-expressing epithelial cells (IL-33; [9]): significantly decreased
lung IL-33 protein expression (IL-33; RSV-infected, whole lung homogenate ELISA): significantly decreased
